Data from patent US20260199242A1, “PROCESSES FOR MAKING CYCLIC LIPID IMPLANTS FOR INTRAOCULAR USE” (Allergan, Inc., priority 2006, published 2026).
The name of at least one read-out is uncertain.

Experiment: Solubility parameters for DDS components (Table 4)
Format: physicochemical

SMILES: CCNC(=O)CCC/C=C\C[C@@H]1[C@@H](/C=C/[C@@H](O)CCc2ccccc2)[C@H](O)C[C@@H]1O [Bimatoprost]
- Solubility Parameter: 17-19 MPa^1/2
